Measurements taken from EP4733388A1, “LACTOBACILLUS RHAMNOSUS STRAIN, VIABLE BACTERIA FORMULATION AND PREPARATION METHOD THEREFOR AND USE THEREOF” (priority 2023, dated 2024).
At least one compound was matched to its structure with a doubt left.

System: L. rhamnosus HOM1213 strain
Test: Antibiotic susceptibility test, K-B agar method (disc diffusion)
Format: cell-based, Lactobacillus rhamnosus
Details: summary of Table 3
Procedure: The drug susceptibility test was performed using the K-B agar method recommended by the National Committee for Clinical Laboratory Standards (NCCLS), the drug sensitivity test, as follows: • (1) The commercial strain L. rhamnosus GG strain was selected as the control strain. The L. rhamnosus HOM1213 strain and the GG strain were inoculated in MRS liquid medium at an inoculation amount of 3% of the total amount of the medium, cultured at 37°C for 24 hours, and activated continuously for 3 generations for later use. • (2) 1 mL of bacterial solution (1.5 × 10^8 CFU/mL) and 15 mL of MRS solid medium were mixed, and placed in a sterile culture dish, and mixed uniformly. A standard antibiotic susceptibility testing disc was placed after the plate was solidified, and cultured at 37°C for 48 h, and the diameter of the inhibition zone was measured and recorded.
Table 3. Results of susceptibility test of L. rhamnosus HOM1213 strain on nine antibiotics.

SMILES: NC[C@H]1O[C@H](O[C@H]2[C@H](O)[C@@H](O[C@H]3O[C@H](CO)[C@@H](O)[C@H](N)[C@H]3O)[C@H](N)C[C@@H]2N)[C@H](O)[C@@H](O)[C@@H]1O [Kanamycin]
- Susceptibility of L. rhamnosus HOM1213 strain to the antibiotic, in words: resistant
